# Assay results taken from PMC6925144, “A prospective compound screening contest identified broader inhibitors for Sirtuin 1” (Scientific Reports, 2019).
# By UniProt entry, the sequences of proteins in these tests, tags left out. Residues count along the entry.
# UniProt Q96EB6, 2-747 limits assumed: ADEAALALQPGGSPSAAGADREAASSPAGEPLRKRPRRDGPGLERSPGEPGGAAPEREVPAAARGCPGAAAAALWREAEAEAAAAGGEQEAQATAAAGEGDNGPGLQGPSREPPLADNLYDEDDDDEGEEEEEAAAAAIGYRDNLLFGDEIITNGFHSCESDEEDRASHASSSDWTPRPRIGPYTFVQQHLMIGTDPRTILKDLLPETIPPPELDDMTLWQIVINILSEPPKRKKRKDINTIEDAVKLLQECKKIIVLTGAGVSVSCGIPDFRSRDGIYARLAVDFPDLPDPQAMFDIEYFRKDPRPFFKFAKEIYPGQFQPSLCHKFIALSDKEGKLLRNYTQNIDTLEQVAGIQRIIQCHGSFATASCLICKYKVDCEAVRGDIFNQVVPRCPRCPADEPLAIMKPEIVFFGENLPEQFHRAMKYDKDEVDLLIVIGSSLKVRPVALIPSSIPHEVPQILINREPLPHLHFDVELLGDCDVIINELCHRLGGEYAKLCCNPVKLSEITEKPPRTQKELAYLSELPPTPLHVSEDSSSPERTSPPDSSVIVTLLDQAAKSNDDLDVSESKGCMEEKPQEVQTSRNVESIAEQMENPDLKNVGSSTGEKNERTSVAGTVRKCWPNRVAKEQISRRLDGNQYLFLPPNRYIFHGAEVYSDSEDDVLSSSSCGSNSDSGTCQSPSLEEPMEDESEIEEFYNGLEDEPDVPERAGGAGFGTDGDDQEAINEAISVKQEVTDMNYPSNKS
# Over roughly 3,200 compounds, “TSA(with NAD+) / Primary screening (TSA) / delta Tm (K)” has its median near -0.04; the highest 2% begin near 0.37. This is one part of the list.
# Target: NAD-dependent deacetylase Sirtuin 1 (human, UniProt Q96EB6)
# Experiment: primary screen, delta tm
# Parameters: single well (n = 1, as 'the same TSA')
# Conditions: 10 µM
row,SMILES,TSA(with NAD+) / Primary screening (TSA) / delta Tm (K)
1,Cc1nc2cc(C(=O)NCc3nnc4ccccn34)ccc2n1-c1ccccc1,-0.05
2,CC(C)[C@H](NC(=O)Cc1cccc2ccccc12)C(=O)OCC(=O)NC12CC3CC(CC(C3)C1)C2,0.01
3,C#C[C@]1(O)CC[C@H]2[C@@H]3CCC4=CC(=O)CC[C@@H]4[C@H]3CC[C@@]21CC,-0.23
4,Cc1nnc(CNC(=O)c2cc(-c3ccccc3)nc3c(C(N)=O)ncn23)s1,-0.13
5,NS(=O)(=O)CCNc1ncnc2ccsc12,0.08
6,Cc1cc(C(=O)COC(=O)c2cc(S(=O)(=O)N3CCCCC3)ccc2N2CCCCC2)c(C)n1CC1CCCO1 (stereo not drawn),-0.05
7,Nc1ccc(NC=C2C(=O)CC(c3ccccc3)CC2=O)cc1 (stereo not drawn),0.01
8,NC(=O)c1ccc(COC(=O)c2ccc(S(N)(=O)=O)cc2)cc1,0.06
9,O=C(Cc1noc2ccccc12)NCc1ccc(N2CCCC2=O)cc1,0.05
10,O=C(CCc1cccnc1)NCCCc1nc2ccccc2[nH]1,-0.28
11,Cc1cc(=O)oc2cc(OCC(=O)Nc3ccc4ccccc4c3)ccc12,-0.04
12,OC1CN(c2ncnc3c2oc2ccccc23)C1,-0.01
13,CS(=O)(=O)Nc1cccc(OCCNC(=O)C2=NN(Cc3ccccc3)C(=O)CC2)c1,-0.04
14,COc1cc(CNC(=O)CCc2c(C)nc(N3CCOCC3)[nH]c2=O)ccc1OCc1ccccc1,-0.03
15,COc1ccc(NC(=O)C2=COCCO2)cc1S(=O)(=O)N1CCOCC1,-0.29
16,Cc1ccc(N(C)S(=O)(=O)c2cccc(C(=O)NCCc3c[nH]c4ccccc34)c2)cc1,0.18
17,O=[N+]([O-])c1ccc(/C=C/C2=NN(c3ccccc3)C(c3ccco3)C2)o1 (stereo not drawn),0.06
18,O[C@H]1CCN(c2ncnc3ccsc23)C1,0.01
19,O=C(CN1CCc2ccccc21)Nc1cnc2ccccc2c1,-0.13
20,O=C(O)CN1C(=O)CSC1=S,-0.09
21,NC(=O)c1ccc(F)c(NC(=O)NCc2ccc(N3CCCCCC3)nc2)c1,-0.01
22,COc1ccc(N2C(=O)/C(=C/NNC(=O)C34CC5CC(CC(C5)C3)C4)c3ccccc3C2=O)cc1,0.18
23,CC1CCCCN1CCCCNC(=O)c1ccc2c(c1)C(=O)N(CCc1ccccc1)C2=O (stereo not drawn),-0.03

row,SMILES,TSA(with NAD+) / Primary screening (TSA) / delta Tm (K)
1,COCCNc1oc2c(c1-c1ccccc1[N+](=O)[O-])c(=O)oc1ccc(C)cc12,-0.23
2,NC(=O)c1ccc(N2CCCC2)c(NC(=O)CCNC(=O)Cc2ccccc2)c1,0.16
3,O=C(/C=C/c1ccc2c(c1)OCO2)N1CCCC1c1nc2ccccc2s1 (stereo not drawn),-0.11
4,CCOC(=O)N(C)CC(=O)Nc1ccc(-n2cnc3ccccc32)nc1,0.15
5,COc1cccc(NC(=O)COc2ccc(C(=O)NC(C)C34CC5CC(CC(C5)C3)C4)cc2)c1 (stereo not drawn),-0.12
6,O=c1c2ccccc2ncn1CC(O)c1cccc(F)c1 (stereo not drawn),-0.19
7,CC1CCc2c(sc3nc4c5ccccc5c5nnnn5n4c(=O)c23)C1 (stereo not drawn),-0.02
8,COc1cc(CN(C)C(=O)CN2C(=O)COc3ccccc32)ccc1OCc1ccccc1,-0.02
9,COC(=O)Cn1cnc2c(N)ncnc21,-0.03
10,COc1ccc(C)cc1N1CC(C(=O)N2CCC(OC)CC2)CC1=O (stereo not drawn),0.06
11,O=C1NC(=S)NC(=O)C1=NNc1c(F)cccc1F,-0.05
12,NNc1ncnc2c1cnn2-c1ccccc1,-0.11
13,COC(=O)c1cc2ccccc2c(CN(C)Cc2ccc(C(N)=O)cc2)c1O,-0.13
14,NC(=O)c1ccc(NC(=O)COC(=O)COc2ccc3c(c2)CCC3)cc1,-0.04
15,Cc1nc(-c2ccc(CNC(=O)c3cccc([N+](=O)[O-])c3)cc2)cs1,-0.04
16,O=c1c2ccccc2ncn1CC(O)c1ccccc1Cl (stereo not drawn),0.38
17,CCOc1ccc(Oc2ccc(NC(=O)CNC(=O)CC34CC5CC(CC(C5)C3)C4)cc2)cc1,0.12
18,Cc1nc(SCC(=O)N(C)C2CCCc3ccccc32)c2ccccc2n1 (stereo not drawn),-0.18
19,Cc1cccc(C)c1OC(=O)c1ccc(C#N)cc1,-0.06
20,Cc1nc(-c2ccccn2)[nH]c(=O)c1CC(=O)NCc1cccc(Oc2ccccc2)c1,0.16
21,CC(CN1CCOCC1)NC(=O)C(Cc1ccccc1)n1cnnn1 (stereo not drawn),-0.09
22,CS(=O)(=O)c1ccc(NC(=O)c2ccccc2SCC(=O)NC23CC4CC(CC(C4)C2)C3)cc1,-0.09
23,CCS(=O)(=O)Nc1ccc(C(C)NCc2cnn(C)c2C)cc1 (stereo not drawn),-0.13

row,SMILES,TSA(with NAD+) / Primary screening (TSA) / delta Tm (K)
1,O=C(Nc1cccc(S(=O)(=O)NCc2ccco2)c1)c1ccccc1OCc1ccccc1Cl,0.17
2,O=C(COc1ccccc1-c1ccccc1)Nc1cccc(S(=O)(=O)NCc2ccco2)c1,-0.02
3,Cc1ccc(NC(=O)C(OC(=O)C23CC4CC(CC(O)(C4)C2)C3)c2ccccc2)c([N+](=O)[O-])c1 (stereo not drawn),-0.13
4,CC(=O)Nc1ccc(NCc2nnc3n(C)c(=O)c4ccccc4n23)cc1Cl,-0.06
5,CCOc1ccc(C(=O)NCCc2ccc(S(N)(=O)=O)cc2)cc1,0.16
6,Cc1cnn(CCNCc2coc(-c3ccccc3Cl)n2)c1,-0.26
7,Cc1ccc(C(=O)NC(C)c2nc(C)c(C(=O)O)s2)s1 (stereo not drawn),-0.28
8,Cn1cnnc1Sc1ccc(Cl)cc1NC(=O)c1cnc2ccccc2n1,-0.03
9,Cc1ccc(Cl)cc1NC(=O)CC#N,-0.03
10,CCc1ccc(C(Nc2ccc3nnnn3n2)c2cccc(F)c2)cc1 (stereo not drawn),0.08
11,CN(c1ccc(C(N)=O)cc1)S(=O)(=O)c1ccccc1,-0.14
12,NC(=O)c1c(NC(=O)CSc2nnc(N3CCCC3)n2CC2CCCO2)sc2c1CCCC2 (stereo not drawn),0.01
13,COC(=O)c1cn(CC(=O)NCCc2cccs2)c2ccccc12,0.06
14,CC(c1ccco1)N(C)CC(=O)N1CCC(C(N)=O)CC1 (stereo not drawn),-0.06
15,O=C(NCc1ccc(N2CCCC2)cc1)c1csc([N+](=O)[O-])c1,-0.03
16,CCCN(C(=O)c1ccc(Oc2ccccc2)cc1)C1CCS(=O)(=O)C1 (stereo not drawn),-0.32
17,O=C1/C(=C/c2cc3c(cc2Br)OCO3)Oc2cc(O)ccc21,-0.03
18,O=C(NCc1ccc(-n2cccn2)nc1)c1ccc(/C=C/c2ccc3ccccc3n2)cc1,-0.18
19,Cc1c2c(nc3c1oc1ccccc13)CCCCCCCCCC2,-0.08
20,CON(C)C(=O)c1[nH]c2ccc(C)cc2c1C,0.06
21,Cc1ccc(N(C)S(=O)(=O)c2cccc(C(=O)NNC(=O)CC34CC5CC(CC(C5)C3)C4)c2)cc1,0.19
22,O=C1CCCN1c1cccc(NS(=O)(=O)c2cccc(F)c2)c1,-0.08
23,O=C(CCc1ccccc1F)NCc1cccc(NC(=O)c2ccncc2)c1,0.03

row,SMILES,TSA(with NAD+) / Primary screening (TSA) / delta Tm (K)
1,CCCCCCC(C)NN (stereo not drawn),-0.11
2,NC(=O)c1ccc(NC(=O)NCc2ccnc3ccccc23)cc1Cl,0.08
3,Cc1cc(CC(=O)N2CCC3(CCC3)C2)n[nH]1,-0.13
4,CN(C(=O)CSc1nc(-c2cccs2)cc(C(F)(F)F)c1C#N)C1CCS(=O)(=O)C1 (stereo not drawn),-0.08
5,COC(=O)C(CNC(=O)c1ccc2nccn2c1)c1ccc(F)cc1 (stereo not drawn),0.02
6,CC1CC(C)(C)CC2(C1)NC(=O)N(CC(=O)Nc1ccc(C(N)=O)cc1)C2=O (stereo not drawn),-0.15
7,Cc1nc2ccccc2c(C)c1CC(=O)NC1CCCc2ccccc21 (stereo not drawn),-0.02
8,O=C(Cn1[nH]c(=O)c2ccccc2c1=O)NC1CCCc2ccccc21 (stereo not drawn),-0.04
9,O=C(CCCc1nc2ccccc2c(=O)[nH]1)NC1CCCc2ccccc21 (stereo not drawn),-0.23
10,O=C(OCc1cc(=O)n2c(n1)sc1ccccc12)c1ccc2[nH]c3c(c2c1)CCCC3,0.09
11,CC1(C)Cc2cccc(OCC(=O)OCC(=O)Nc3ccc(C(N)=O)cc3)c2O1,0.08
12,O=C(c1ccccc1)C(Sc1nc(-c2ccccc2)n[nH]1)c1ccccc1 (stereo not drawn),0.12
13,O=C(O)CNCC(=O)O,-0.01
14,CC(C)(C)OC(=O)NC1CCN(CC(=O)NCCNc2ncnc3sccc23)CC1,-0.01
15,C[C@H]1CNCCN1,-0.05
16,COc1ccccc1NS(=O)(=O)c1cccc(NC(=O)c2oc3ccccc3c2CSC)c1,-0.08
17,NC(=O)c1ccc(OCC(=O)N(CCc2ccccc2)Cc2ccccc2)cc1,-0.12
18,CN(Cc1cnn(Cc2ccccc2)c1)C(=O)CCc1ncc(-c2c(F)cccc2F)o1,-0.03
19,Cn1c(=O)[nH]c(=O)c2c1nc(N1CCC(C(N)=O)CC1)n2CCSc1ncccn1,-0.02
20,COc1ccc(OCCN(C)C(=O)c2ccc(NC3=NS(=O)(=O)c4ccccc43)cc2)cc1,0.16
21,COC(=O)c1cc(-c2csc(NC(=O)c3cccc(NC(=O)c4cnoc4C)c3)n2)c[nH]1,0.67
